Results are given in words; binding and its absence hold for the method and conditions named. Binding can be weak; no strength is given. Where a sequence is shown, tags or fusion partners need not be part of it. For some assays here: In cells and extracts the contact can be indirect.
Legend:
RabGDI [1] = experiment: immunoprecipitation with anti-GFP antibodies, Western blot
RabGDI [2] = experiment: co-immunoprecipitation of GFP-Rab13 with GFP-Trap beads from MDA-MB-231 lysates, Western blot

B1: GFP-Rab13 (N-terminally GFP-tagged human Rab13) (other, UniProt P51153 1-203, looked up, not shown: large carriers)
chain: MAKAYDHLFKLLLIGDSGVGKTCLIIRFAEDNFNNTYISTIGIDFKIRTVDIEGKKIKLQVWDTAGQERFKTITTAYYRGAMGIILVYDITDEKSFENIQNWMKSIKENASAGVERLLLGNKCDMEAKRKVQKEQADKLAREHGIRFFETSAKSSMNVDEAFSSLARDILLKSGGRRSGNGNKPPSTDLKTCDKKNTNKCSLG
notes: Stably expressed in MDA-MB-231 cells from constructs with the wild type or the delta-PMO Rab13 3'UTR; the encoded protein is the same; Assayed from cell lysates; also called exogenous GFP-Rab13; exogenous Rab13
Q: Which binding (RabGDI [1]) does the source give for B1 here?
A: binds

Q: What about the binding (RabGDI [2]) of the same binder?
A: binds

From patent publication US20230057461A1 (US Dept. of Health and Human Services, published 2023)
